In patent publication US20210380699A1:
These are yes or no findings as the source states them, for the method shown. Some binding calls cover weakened binding; strength is not graded here.

By UniProt entry, the sequences of proteins in these tests, tags left out. Where a name states a change or a piece, a line headed by the entry shows the natural chain unless it says otherwise. Chains listed by the source or under a name are the forms on record and can include a tag or linker.
Cynomolgus PD-L1 expressed on CHO-S cells (G7PSE7, form named): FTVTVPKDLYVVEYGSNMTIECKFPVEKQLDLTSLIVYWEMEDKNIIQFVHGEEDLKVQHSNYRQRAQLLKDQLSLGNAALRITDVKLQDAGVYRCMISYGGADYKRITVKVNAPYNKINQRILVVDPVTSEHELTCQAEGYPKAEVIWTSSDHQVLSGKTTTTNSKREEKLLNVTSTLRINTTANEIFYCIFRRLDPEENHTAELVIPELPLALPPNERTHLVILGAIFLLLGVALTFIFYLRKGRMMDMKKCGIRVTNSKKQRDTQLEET

B1: 413G05 (antibody, human IgG1, kappa, V domains shown)
VH: QVQLVESGGGLVKPGGSLRLSCAASGFTFSDYYMSWIRQVPGKGLEWVSYISTSGSTIYYADSVKGRFTISRDNAKNSLYLQMNSLRAEDAAVYHCARGITGTNFYHYGLGVWGQGTTVTVSS
VL: DIQMTQSPSSVSASVGDRVTITCRASQGINSWLAWYQQKPGKAPKLLIYAASTLQSGVPSRFSGSGSGADFTLTISSLQPEDFATYYCQQVNSFPLTFGGGTKVEIKR
B2: 416E01 (human IgG1) (antibody, V domains shown)
VH: EVQLAESGGGLVQPGGSLRLSCAASGFTFSNYAMSWVRQTPGKGLEWVSAISFSGGTTYYADSVKGRFTISRDNSKNTLYLHMNSLRADDTAVYYCAKDEAPAGATFFDSWGQGTLVTVSS
VL: DIQMTQSPSSVSASVGDRVTITCRASQGIRRWLAWYQQKPGKAPKLLISGASSLQSGVPSRFSGSGSGTDFTLIITSLQPEDFATYYCQQANSFPITFGQGTRLEIKR

Biological target: Cynomolgus PD-L1 expressed on CHO-S cells (cynomolgus monkey) (UniProt G7PSE7)
Assay: flow cytometry on CHO-S cynomolgus PD-L1 cells

Binder	binding
B1	binds
B2	binds
